Results reported in publication PMC2551604.
These are yes or no findings as the source states them, for the method shown. In cells and extracts the contact can be indirect. Some results given as binding are weak or reduced against the parent protein; the word gives no strength.

The chains behind the UniProt entries cited, without tags or fusion partners.
UniProt Q9WVB2: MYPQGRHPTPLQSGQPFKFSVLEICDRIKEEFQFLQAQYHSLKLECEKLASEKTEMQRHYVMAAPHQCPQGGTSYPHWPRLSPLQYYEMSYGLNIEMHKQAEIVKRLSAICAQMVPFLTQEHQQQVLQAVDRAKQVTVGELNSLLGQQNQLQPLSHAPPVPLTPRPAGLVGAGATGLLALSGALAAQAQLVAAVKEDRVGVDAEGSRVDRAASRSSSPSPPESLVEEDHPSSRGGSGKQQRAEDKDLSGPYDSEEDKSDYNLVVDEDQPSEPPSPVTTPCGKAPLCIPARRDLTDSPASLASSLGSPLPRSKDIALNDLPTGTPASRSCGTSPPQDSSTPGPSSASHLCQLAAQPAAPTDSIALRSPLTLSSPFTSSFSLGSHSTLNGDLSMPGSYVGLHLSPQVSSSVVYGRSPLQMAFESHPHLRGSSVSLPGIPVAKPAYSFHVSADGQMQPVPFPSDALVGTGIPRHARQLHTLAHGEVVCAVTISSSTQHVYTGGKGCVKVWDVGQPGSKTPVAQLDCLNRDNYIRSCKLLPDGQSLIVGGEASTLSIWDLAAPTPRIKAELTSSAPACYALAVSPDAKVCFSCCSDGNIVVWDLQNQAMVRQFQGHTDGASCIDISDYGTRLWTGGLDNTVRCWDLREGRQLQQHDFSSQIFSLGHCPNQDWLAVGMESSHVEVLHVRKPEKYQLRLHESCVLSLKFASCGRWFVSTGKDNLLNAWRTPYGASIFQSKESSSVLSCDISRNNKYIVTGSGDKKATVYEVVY
UniProt O35085: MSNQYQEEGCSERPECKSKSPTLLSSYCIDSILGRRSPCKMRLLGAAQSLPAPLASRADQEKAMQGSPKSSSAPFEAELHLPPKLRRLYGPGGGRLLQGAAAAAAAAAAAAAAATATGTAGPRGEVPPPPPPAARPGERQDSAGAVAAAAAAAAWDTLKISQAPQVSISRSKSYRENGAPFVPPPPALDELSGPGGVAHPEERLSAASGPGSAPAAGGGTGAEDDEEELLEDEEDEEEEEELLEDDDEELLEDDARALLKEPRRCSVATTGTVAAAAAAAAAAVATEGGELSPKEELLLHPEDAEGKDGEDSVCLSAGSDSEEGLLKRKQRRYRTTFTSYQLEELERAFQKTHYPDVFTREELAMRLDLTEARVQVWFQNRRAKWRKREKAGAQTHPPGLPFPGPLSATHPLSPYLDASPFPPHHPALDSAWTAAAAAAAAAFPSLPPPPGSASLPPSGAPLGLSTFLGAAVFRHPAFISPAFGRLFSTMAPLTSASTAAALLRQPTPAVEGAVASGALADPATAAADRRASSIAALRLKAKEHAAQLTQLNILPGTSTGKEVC

Key:
Flag tagged Tle2 (mouse) = Flag tagged Tle2 (mouse) (UniProt Q9WVB2); assay: co-IP; lysate of Min6 cells transfected with pCMS-6xHis-Arx and pCMS-Flag-Tle2, 48 hrs; precipitation with anti-Tle2, rabbit IgG as control; blot with anti-His
[1] = molecular target: T1, Hes1 (mouse (endogenous in Min6)) (UniProt P35428); assay: co-IP; 200 ug Min6 lysate, endogenous proteins; precipitation with rabbit anti-Tle2 or anti-Hes1 and ProteinA-Sepharose, 4°, rabbit IgG as control; Western blot
T1 sequence: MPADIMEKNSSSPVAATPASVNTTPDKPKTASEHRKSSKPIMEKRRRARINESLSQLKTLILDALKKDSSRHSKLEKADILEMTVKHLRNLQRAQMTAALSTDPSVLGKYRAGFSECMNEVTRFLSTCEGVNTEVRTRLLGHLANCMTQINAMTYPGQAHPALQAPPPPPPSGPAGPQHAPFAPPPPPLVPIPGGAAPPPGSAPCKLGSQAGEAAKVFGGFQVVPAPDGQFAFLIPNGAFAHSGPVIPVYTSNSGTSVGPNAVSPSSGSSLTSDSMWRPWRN

[2] = molecular target: Tle2 (mouse (endogenous in Min6)) (UniProt Q9WVB2); assay: as above

How did the binding (Flag tagged Tle2 (mouse)) turn out when “6xHis tagged Arx (from UniProt O35085 1-564)” was run?
Its binding is “binds”.

Tle2 (from UniProt Q9WVB2 1-767) was tested. Which binding [1] did it give?
Its binding is “binds”.

B1: Nkx2-2 (protein, UniProt P42586 1-273)
chain: MSLTNTKTGFSVKDILDLPDTNDEDGSVAEGPEEESEGPEPAKRAGPLGQGALDAVQSLPLKSPFYDSSDNPYTRWLASTEGLQYSLHGLAASAPPQDSSSKSPEPSADESPDNDKETQGGGGDAGKKRKRRVLFSKAQTYELERRFRQQRYLSAPEREHLASLIRLTPTQVKIWFQNHRYKMKRARAEKGMEVTPLPSPRRVAVPVLVRDGKPCHALKAQDLAAATFQAGIPFSAYSAQSLQHMQYNAQYSSASTPQYPTAHPLVQAQQWTW
With B1 as the molecule, how does the binding [2] read?
The binding was “binds”.
